Test system: fatty acid biosynthesis in S. carnosus TM300
Type: cell-based, Staphylococcus carnosus
Conditions: S. carnosus TM300, 2× MIC, normalized to OD600, three independent experiments
Description: Radiolabel incorporation experiments were carried out similarly as previously described but using S. carnosus ([Wu et al., 2019]). The OD600 of parallel nonradioactive cultures was measured at each time point to normalize the measured radioactivity and minimize effects due to cell death and growth inhibition. The radiolabeled reagents and their corresponding positive and negative antibiotic controls were as follows. Fatty acid: [^14C]-acetic acid (American Radiolabeled Chemicals, ARC 0101A), positive control: isoniazid (Sigma), negative control: ciprofloxacin. Cell wall: [^14C]-N-acetyl-D-glucosamine (American Radiolabeled Chemicals, ARC 0105), positive control: vancomycin, negative control: ciprofloxacin. DNA: [^14C]-thymidine (American Radiolabeled Chemicals, ARC 1219), positive control: ciprofloxacin, negative control: rifampicin. RNA: [5-^3H]-uridine (PerkinElmer, NET174250UC), positive control: rifampicin, negative control: ciprofloxacin. Amino acids: [^14C]-L-amino acid mixture (PerkinElmer, NEC850E050UC), positive control: chloramphenicol, negative control: ciprofloxacin. All experiments were conducted independently three times.
Figure S3. […] T he p ercent i nco rpo ratio n at 0 min was measured after incubati ng the cel l cultur e with 0.8 μCi/mL radioactive precursors for 15 min. […]

O=C(O)c1cn(C2CC2)c2cc(N3CCNCC3)c(F)cc2c1=O [ciprofloxacin, reference compound]
fatty acid biosynthesis (14C-acetic acid incorporation): much smaller

Source: PMC10652874, “Investigation into the mechanism of action of the antimicrobial peptide epilancin 15X” (Frontiers in Microbiology, 2023)
